These are yes or no findings as the source states them, for the method shown. In cells and extracts the contact can be indirect. Some results given as binding are weak or reduced against the parent protein; the word gives no strength.

Chains of the proteins cited; added tags and fusions are not shown.
UniProt P25439: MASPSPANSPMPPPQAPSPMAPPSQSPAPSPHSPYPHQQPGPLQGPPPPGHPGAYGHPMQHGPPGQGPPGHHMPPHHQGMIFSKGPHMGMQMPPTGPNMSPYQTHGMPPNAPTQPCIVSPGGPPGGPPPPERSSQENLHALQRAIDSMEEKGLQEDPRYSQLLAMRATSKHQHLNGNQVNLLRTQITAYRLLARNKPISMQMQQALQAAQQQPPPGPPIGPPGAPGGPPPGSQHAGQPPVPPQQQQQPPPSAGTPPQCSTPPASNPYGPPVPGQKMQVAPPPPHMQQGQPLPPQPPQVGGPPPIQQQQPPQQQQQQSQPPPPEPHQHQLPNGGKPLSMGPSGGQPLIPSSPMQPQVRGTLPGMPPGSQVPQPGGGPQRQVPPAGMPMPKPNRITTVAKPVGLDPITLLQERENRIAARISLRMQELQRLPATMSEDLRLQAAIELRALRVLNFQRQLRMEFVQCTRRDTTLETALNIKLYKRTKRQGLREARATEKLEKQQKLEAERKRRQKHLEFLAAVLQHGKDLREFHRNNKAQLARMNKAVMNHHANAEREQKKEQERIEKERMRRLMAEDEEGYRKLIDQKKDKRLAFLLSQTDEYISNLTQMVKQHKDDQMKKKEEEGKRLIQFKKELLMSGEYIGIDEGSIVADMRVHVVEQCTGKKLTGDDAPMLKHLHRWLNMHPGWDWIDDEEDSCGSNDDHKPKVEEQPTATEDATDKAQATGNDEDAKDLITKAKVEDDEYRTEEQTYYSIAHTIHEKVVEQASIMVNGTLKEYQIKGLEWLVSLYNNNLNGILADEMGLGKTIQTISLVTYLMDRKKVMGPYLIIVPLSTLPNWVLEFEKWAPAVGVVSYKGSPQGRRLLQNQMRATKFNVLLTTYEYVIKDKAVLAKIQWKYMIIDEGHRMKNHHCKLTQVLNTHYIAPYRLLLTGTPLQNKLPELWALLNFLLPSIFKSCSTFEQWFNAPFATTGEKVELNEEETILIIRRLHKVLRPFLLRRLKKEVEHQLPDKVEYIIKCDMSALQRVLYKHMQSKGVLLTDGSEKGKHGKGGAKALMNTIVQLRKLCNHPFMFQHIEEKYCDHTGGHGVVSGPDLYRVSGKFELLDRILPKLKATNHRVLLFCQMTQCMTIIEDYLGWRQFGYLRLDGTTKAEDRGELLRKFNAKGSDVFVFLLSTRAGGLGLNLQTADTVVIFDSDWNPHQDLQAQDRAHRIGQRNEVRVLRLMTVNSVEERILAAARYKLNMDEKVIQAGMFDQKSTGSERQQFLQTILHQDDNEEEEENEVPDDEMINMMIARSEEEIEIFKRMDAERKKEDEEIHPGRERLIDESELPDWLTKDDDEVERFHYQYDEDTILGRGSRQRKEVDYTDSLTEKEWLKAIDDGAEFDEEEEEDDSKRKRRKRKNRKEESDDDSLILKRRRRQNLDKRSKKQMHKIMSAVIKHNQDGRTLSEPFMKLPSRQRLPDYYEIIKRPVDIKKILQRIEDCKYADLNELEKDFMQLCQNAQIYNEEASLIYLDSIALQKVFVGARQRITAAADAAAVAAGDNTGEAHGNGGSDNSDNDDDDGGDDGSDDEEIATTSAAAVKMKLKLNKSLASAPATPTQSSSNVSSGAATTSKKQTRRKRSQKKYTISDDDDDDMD
UniProt O61735: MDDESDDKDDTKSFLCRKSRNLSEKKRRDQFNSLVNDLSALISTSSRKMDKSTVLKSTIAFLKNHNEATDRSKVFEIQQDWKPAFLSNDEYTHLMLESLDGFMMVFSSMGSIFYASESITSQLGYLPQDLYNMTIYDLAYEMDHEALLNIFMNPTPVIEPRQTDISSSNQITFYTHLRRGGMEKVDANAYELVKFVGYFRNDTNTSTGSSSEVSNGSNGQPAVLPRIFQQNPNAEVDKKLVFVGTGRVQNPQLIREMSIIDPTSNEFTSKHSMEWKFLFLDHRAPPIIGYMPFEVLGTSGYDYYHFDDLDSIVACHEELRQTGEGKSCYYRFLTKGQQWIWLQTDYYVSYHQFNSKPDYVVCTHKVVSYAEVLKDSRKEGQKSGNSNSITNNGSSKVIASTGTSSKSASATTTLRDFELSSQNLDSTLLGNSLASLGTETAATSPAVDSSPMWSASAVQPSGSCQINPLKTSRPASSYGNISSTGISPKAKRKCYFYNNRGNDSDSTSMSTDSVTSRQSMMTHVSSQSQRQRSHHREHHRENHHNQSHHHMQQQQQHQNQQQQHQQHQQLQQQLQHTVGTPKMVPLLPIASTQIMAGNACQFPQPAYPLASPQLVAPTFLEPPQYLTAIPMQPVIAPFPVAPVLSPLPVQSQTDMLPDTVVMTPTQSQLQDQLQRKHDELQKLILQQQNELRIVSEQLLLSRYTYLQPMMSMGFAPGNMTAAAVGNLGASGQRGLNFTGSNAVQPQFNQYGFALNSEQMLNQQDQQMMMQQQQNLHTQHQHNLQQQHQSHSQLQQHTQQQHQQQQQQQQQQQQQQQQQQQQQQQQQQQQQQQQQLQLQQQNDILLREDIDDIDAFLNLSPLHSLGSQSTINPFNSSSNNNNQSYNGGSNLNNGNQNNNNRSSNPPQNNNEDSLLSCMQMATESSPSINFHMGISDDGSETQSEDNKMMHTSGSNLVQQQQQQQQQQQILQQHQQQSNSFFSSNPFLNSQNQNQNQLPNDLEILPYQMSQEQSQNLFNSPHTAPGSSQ

This note sets out measurements from PMC4488936.

Assay [1] addresses BRM carrying a 3X FLAG epitope tag, transgene UAS-BRM^RFL (3XFLAG-6XHis-brm in pUAST) (Drosophila melanogaster) (UniProt P25439). Put plainly: co-IP; head extracts (RBS buffer, sonicated, pre-cleared) of flies expressing FLAG-tagged BRM in tim-expressing cells, collected at time points (ZT) of an LD cycle; IP with anti-FLAG, GammaBind Plus sepharose, washes in RBS buffer; western blot.

Assay [2] concerns the target Brahma (BRM) with C-terminal 3XFLAG-6XHis (pAc-brm-3XFLAG-6XHis) (Drosophila melanogaster) (UniProt P25439). Put plainly: co-IP; S2 cells co-transfected with BRM-3XFLAG-6XHis and CLK-V5-His, TIM-3HA or PER-V5-His; M-RIPA extract; reciprocal IPs with anti-FLAG M2 gel, anti-V5 or anti-HA agarose, 4 h at 4 C; washes in M-RIPA with 300 mM NaCl; western blot. (In general: In western blotting, separated proteins are transferred to a membrane and probed.)

For the molecule “CLOCK (CLK), endogenous in fly heads (from UniProt O61735 1-1027)”, the binding result in assay [1] is reported as “binds”.
Turning to “CLOCK (CLK) with V5-His (pAc-clk-V5-His) (from UniProt O61735 1-1027)”, in assay [2], the binding entry is listed as “binds”.

B1: TIMELESS (TIM) with 3HA (pAc-tim-3HA) (protein, UniProt P49021 1-1398)
chain: MDWLLATPQLYSAFSSLGCLEGDTYVVNPNALAILEEINYKLTYEDQTLRTFRRAIGFGQNVRSDLIPLLENAKDDAVLESVIRILVNLTVPVECLFSVDVMYRTDVGRHTIFELNKLLYTSKEAFTEARSTKSVVEYMKHILESDPKLSPHKCDQINNCLLLLRNILHIPETHAHCVMPMMQSMPHGISMQNTILWNLFIQSIDKLLLYLMTCPQRAFWGVTMVQLIALIYKDQHVSTLQKLLSLWFEASLSESSEDNESNTSPPKQGSGDSSPMLTSDPTSDSSDNGSNGRGMGGGMREGTAATLQEVSRKGQEYQNAMARVPADKPDGSEEASDMTGNDSEQPGSPEQSQPAGESMDDGDYEDQRHRQLNEHGEEDEDEDEVEEEEYLQLGPASEPLNLTQQPADKVNNTTNPTSSAPQGCLGNEPFKPPPPLPVRASTSAHAQMQKFNESSYASHVSAVKLGQKSPHAGQLQLTKGKCCPQKRECPSSQSELSDCGYGTQVENQESISTSSNDDDGPQGKPQHQKPPCNTKPRNKPRTIMSPMDKKELRRKKLVKRSKSSLINMKGLVQHTPTDDDISNLLKEFTVDFLLKGYSYLVEELHMQLLSNAKVPIDTSHFFWLVTYFLKFAAQLELDMEHIDTILTYDVLSYLTYEGVSLCEQLELNARQEGSDLKPYLRRMHLVVTAIREFLQAIDTYNKVTHLNEDDKAHLRQLQLQISEMSDLRCLFVLLLRRFNPSIHSKQYLQDLVVTNHILLLILDSSAKLGGCQTIRLSEHITQFATLEVMHYYGILLEDFNNNGEFVNDCIFTMMHHIGGDLGQIGVLFQPIILKTYSRIWEADYELCDDWSDLIEYVIHKFMNTPPKSPLTIPTTSLTEMTKEHNQEHTVCSWSQEEMDTLYWYYVQSKKNNDIVGKIVKLFSNNGNKLKTRISIIQQLLQQDIITLLEYDDLMKFEDAEYQRTLLTTPTSATTESGIEIKECAYGKPSDDVQILLDLIIKENKAQHLLWLQRILIECCFVKLTLRSGLKVPEGDHIMEPVAYHCICKQKSIPVVQWNNEQSTTMLYQPFVLLLHKLGIQLPADAGSIFARIPDYWTPETMYGLAKKLGPLDKLNLKFDASELEDATASSPSRYHHTGPRNSLSSVSSLDVDLGDTEELALIPEVDAAVEKAHAMASTPSPSEIFAVPKTKHCNSIIRYTPDPTPPVPNWLQLVMRSKCNHRTGPSGDPSDCIGSSSTTVDDEGFGKSISAATSQAASTSMSTVNPTTTLSLNMLNTFMGSHNENSSSSGCGGTVSSLSMVALMSTGAAGGGGNTSGLEMDVDASMKSSFERLEVNGSHFSRANNLDQEYSAMVASVYEKEKELNSDNVSLASDLTRMYVSDEDDRLERTEIRVPHYH
For B1, the binding entry in assay [2] is “binds”.

B2: TIMELESS (TIM), endogenous in fly heads (protein, UniProt P49021 1-1398)
chain: B1 chain
Take B2: in assay [1], the binding result was “binds”.
